Reference: PubChem BioAssay AID1259424 (University of Nebraska Medical Center, 2018)
Shown is an unselected part of about 14,000 deposited reagents. 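Higher correlation or smaller distance means closer resemblance to KSR1 loss; control wells, including KSR1 knockdowns, recur on many plates.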 Further read-outs or replicates are left out here. Reagent sequences are not shown. Not given: the time to read-out.

Purpose: 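Find knockdowns that reproduce the expression shifts seen after KSR1 loss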 (primary screen)
Cells: human HCT116 colon cancer cells
Knock-down reagent: siRNA pool against human genes, 50 nM
Detection: 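Six signature mRNAs by branched-DNA multiplex assay, scaled to two housekeeping genes and non-targeting median, log2; matched to mean KSR1 knockdown profile by Pearson correlation and euclidean distance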
Direction: mean correlation with KSR1 profile: higher = expression change more like KSR1 knockdown

HSF4 (heat shock transcription factor 4): mean correlation with KSR1 profile = 0.226
SOSTDC1 (sclerostin domain containing 1): mean correlation with KSR1 profile = -0.46
CKLF (chemokine like factor): mean correlation with KSR1 profile = 0.0407
BUB1 (BUB1 mitotic checkpoint serine/threonine kinase): mean correlation with KSR1 profile = 0.326
SLCO1B1: mean correlation with KSR1 profile = -0.16
ZNF747 (zinc finger protein 747): mean correlation with KSR1 profile = -0.0824
EIF4A1 (eukaryotic translation initiation factor 4A1): mean correlation with KSR1 profile = 0.341
VPS41 (VPS41 subunit of HOPS complex): mean correlation with KSR1 profile = -0.63
NCEH1 (neutral cholesterol ester hydrolase 1): mean correlation with KSR1 profile = 0.519
ITGA2 (integrin subunit alpha 2): mean correlation with KSR1 profile = 0.24
SHC2 (SHC adaptor protein 2): mean correlation with KSR1 profile = -0.249
JMJD1C (jumonji domain containing 1C): mean correlation with KSR1 profile = -0.0616
IKBKG: mean correlation with KSR1 profile = -0.225

Copied from the listing for reference:
SOSTDC1 (sclerostin domain containing 1): mean correlation with KSR1 profile = -0.46
CKLF (chemokine like factor): mean correlation with KSR1 profile = 0.0407
BUB1 (BUB1 mitotic checkpoint serine/threonine kinase): mean correlation with KSR1 profile = 0.326
SLCO1B1: mean correlation with KSR1 profile = -0.16
ZNF747 (zinc finger protein 747): mean correlation with KSR1 profile = -0.0824

The list goes on.
UVRAG (UV radiation resistance associated): mean correlation with KSR1 profile = 0.408
TIMM13 (translocase of inner mitochondrial membrane 13): mean correlation with KSR1 profile = 0.14
EXOSC1 (exosome component 1): mean correlation with KSR1 profile = -0.353
SEH1L (SEH1 like nucleoporin): mean correlation with KSR1 profile = 0.128
DPP7 (dipeptidyl peptidase 7): mean correlation with KSR1 profile = 0.473
PHOX2B (paired like homeobox 2B): mean correlation with KSR1 profile = 0.539
EXOG (exo/endonuclease G): mean correlation with KSR1 profile = 0.00599
NQO1 (NAD(P)H quinone dehydrogenase 1): mean correlation with KSR1 profile = 0.159
DYDC2 (DPY30 domain containing 2): mean correlation with KSR1 profile = -0.0455
GZF1 (GDNF inducible zinc finger protein 1): mean correlation with KSR1 profile = -0.00738
NSUN3 (NOP2/Sun RNA methyltransferase 3): mean correlation with KSR1 profile = -0.386
MAST1 (microtubule associated serine/threonine kinase 1): mean correlation with KSR1 profile = -0.788
RIMS3 (regulating synaptic membrane exocytosis 3): mean correlation with KSR1 profile = -0.292
CLCN5 (Cl-/H+ antiporter 5): mean correlation with KSR1 profile = -0.268
FKBP8 (FKBP prolyl isomerase 8): mean correlation with KSR1 profile = 0.164
INSL4 (insulin like 4): mean correlation with KSR1 profile = 0.219
FGF22 (fibroblast growth factor 22): mean correlation with KSR1 profile = 0.0114
ECHDC2 (enoyl-CoA hydratase domain containing 2): mean correlation with KSR1 profile = -0.0765
PGBD1 (piggyBac transposable element derived 1): mean correlation with KSR1 profile = 0.0154
SPATA31H1 (SPATA31 subfamily H member 1): mean correlation with KSR1 profile = 0.786
NFRKB (nuclear factor related to kappaB binding protein): mean correlation with KSR1 profile = -0.0491
PPP2R5B (protein phosphatase 2 regulatory subunit B'beta): mean correlation with KSR1 profile = -0.0704
DSCAM (DS cell adhesion molecule): mean correlation with KSR1 profile = 0.017
